Assay results: US11851391B2, “Antifungal compounds and methods of forming the same” (University of Kentucky Research Foundation, priority 2018, dated 2023)
Entries after “also recorded” stand apart in the source; their conditions may differ. The name of at least one read-out is uncertain.

Test system: various yeast strains and filamentous fungi (strains A-M)
Test: Antifungal activity over the whole panel (summary of MIC data)
Format: cell-based, Candida and Aspergillus strains
Conditions: over the fungal strains tested, based on MIC data of Table 1
Method: The activity of N,N′-diaryl-bishydrazones 7-22 was tested against a panel of seven strains of C. albicans: ATCC 10231(R) (A), ATCC 64124(R) (B), ATCC MYA-2876(S) (C), ATCC 90819(R) (D), ATCC MYA-2310(S) (E), ATCC MYA-1237(R) (F), and ATCC MYA-1003(R) (G). The activity of these bishydrazones 7-22 was also explored against a panel of three non-albicans Candida strains: C. glabrata ATCC 2001 (H), C. krusei ATCC 6258 (I), and C. parapsilosis ATCC 22019 (J). Finally, the activity of these bishydrazones 7-22 was explored against three Aspergillus strains: A. flavus ATCC MYA-3631 (K), A. nidulans ATCC 38163 (L), and A. terreus ATCC MYA-3633 (M).
The MIC values of compounds 7a-24c against yeast cells (strains A-J) were determined in 96-well plates as described in the CLSI document M27-A3 with minor modifications. A single colony of freshly prepared yeast cells was used to inoculate 5 mL of yeast extract peptone dextrose (YPD) broth prior to incubation overnight with shaking at 200 rpm at 35° C. From the actively growing yeast culture, 100 μL were then transferred to 900 μL of sterile ddH2O and re-adjusted to achieve OD600 of 0.12 (˜1×10^6 CFU/mL). […]
Similarly, the MIC values of compounds 7a-24c, as well as that of the two control drugs against filamentous fungi (strains K-M) were determined as previously described in CLSI document M38-A2. […]

| Compound | antifungal activity (in words) |
| --- | --- |
| Fc1ccc(F)c(N/N=C/c2ccc(-c3cccc(/C=N/Nc4cc(F)ccc4F)c3)cc2)c1 [Compound 21a] | inactive; also recorded: no activity |
| Fc1ccc(F)c(N/N=C/c2ccc(-c3ccc(/C=N/Nc4cc(F)ccc4F)cc3)cc2)c1 [Compound 21b] | inactive; also recorded: no activity |
